Part of at least one peptide drawing is inferred or uncertain, most often the ends. No end group written: not given here.
Legend:
[1] = Measurement of turbidity in BSA (absorbance at 600 nm); type: physicochemical; conditions: 1% BSA, peptide 50 μM
Experimental: The solutions were evaluated for their absorbance at a wavelength of 600 nm by using a spectrophotometer (DU640, manufactured by Beckman).

[2] = test system: phosphatidyl serine (binding of human Factor VIII); assay: Affinity for phosphatidyl serine (EIA, inhibition of human Factor VIII binding); conditions: procedure of Example 20
Experimental: The specific affinity of the peptide for phosphatidyl serine was evaluated by measuring activity of the peptide for inhibiting the binding of the human Factor VIII to phosphatidyl serine by using human Factor VIII which is known to bind to phosphatidyl serine but not to phosphatidyl choline in the presence of serum albumin. To be more specific, 100 μL of ethanol solution containing 10 μg/mL of phospholipids at a phosphatidyl serine (manufactured by SIGMA): phosphatidyl choline (manufactured by SIGMA) ratio of 3:7 was added to the wells of a 96 well plate (Immulon I, manufactured by Dynatech), and exsiccated by using a centrifugal evaporator (EC-95C, manufactured by Sakuma Seisakusho) at 40° C. for 40 minutes. […]
After the completion of the reaction, the human Factor VIII that became bound to the phosphatidyl serine was measured by enzyme immunoassay (EIA) in accordance with the general procedure described in a book (“Enzyme Immunoassay (3rd ed.)”, Eiji Ishikawa et al., Igaku-Shoin, 1987). […]

Sequence: LARLLARLLARLLRALLRALLRAL [SEQ ID NO: 27, reference compound]
- OD 600 [1]: ≥ 1
- Affinity for phosphatidyl serine [2]: no affinity for phosphatidyl serine
